Results are given in words; binding and its absence hold for the method and conditions named. Some binding calls cover weakened binding; strength is not graded here.
How the values were obtained:
[1] = molecular target: Estrogen receptor alpha (ERα), endogenous protein in MCF-7 cells (human) (UniProt P03372); assay: immunofluorescence, confocal microscopy of fixed MCF-7 cells
[2] = molecular target: Estrogen receptor alpha (ERα), endogenous protein in MCF-7 cells (human) (UniProt P03372); assay: immunofluorescence, confocal microscopy of fixed MCF-7 cells (legend of FIG. 20F)

Sequences of proteins named here, by UniProt entry; tags and fusion partners are left off.
UniProt P03372: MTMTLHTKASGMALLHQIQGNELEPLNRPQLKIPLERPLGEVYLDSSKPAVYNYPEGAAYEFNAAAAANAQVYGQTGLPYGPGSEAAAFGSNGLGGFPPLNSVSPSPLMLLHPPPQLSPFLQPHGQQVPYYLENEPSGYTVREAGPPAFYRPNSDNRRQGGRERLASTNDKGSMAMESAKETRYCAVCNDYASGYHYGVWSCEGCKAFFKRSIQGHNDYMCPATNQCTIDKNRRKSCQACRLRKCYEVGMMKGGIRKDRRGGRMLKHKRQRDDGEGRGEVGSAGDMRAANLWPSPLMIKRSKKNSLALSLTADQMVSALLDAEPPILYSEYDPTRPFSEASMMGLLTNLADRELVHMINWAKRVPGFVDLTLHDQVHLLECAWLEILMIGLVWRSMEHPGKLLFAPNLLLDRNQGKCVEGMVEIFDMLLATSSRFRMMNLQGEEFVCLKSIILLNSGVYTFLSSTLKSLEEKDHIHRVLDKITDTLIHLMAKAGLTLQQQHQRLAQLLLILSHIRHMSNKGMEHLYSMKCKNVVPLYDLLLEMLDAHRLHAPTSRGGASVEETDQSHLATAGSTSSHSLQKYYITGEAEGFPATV

B1: LMTK3 (lemur tyrosine kinase 3), endogenous protein in MCF-7 cells and in breast cancer tissue (enzyme, human, UniProt Q96Q04 21-1460, looked up)
chain: SPAHPDGFALGRAPLAPPYAVVLISCSGLLAFIFLLLTCLCCKRGDVGFKEFENPEGEDCSGEYTPPAEETSSSQSLPDVYILPLAEVSLPMPAPQPSHSDMTTPLGLSRQHLSYLQEIGSGWFGKVILGEIFSDYTPAQVVVKELRASAGPLEQRKFISEAQPYRSLQHPNVLQCLGLCVETLPFLLIMEFCQLGDLKRYLRAQRPPEGLSPELPPRDLRTLQRMGLEIARGLAHLHSHNYVHSDLALRNCLLTSDLTVRIGDYGLAHSNYKEDYYLTPERLWIPLRWAAPELLGELHGTFMVVDQSRESNIWSLGVTLWELFEFGAQPYRHLSDEEVLAFVVRQQHVKLARPRLKLPYADYWYDILQSCWRPPAQRPSASDLQLQLTYLLSERPPRPPPPPPPPRDGPFPWPWPPAHSAPRPGTLSSPFPLLDGFPGADPDDVLTVTESSRGLNLECLWEKARRGAGRGGGAPAWQPASAPPAPHANPSNPFYEALSTPSVLPVISARSPSVSSEYYIRLEEHGSPPEPLFPNDWDPLDPGVPAPQAPQAPSEVPQLVSETWASPLFPAPRPFPAQSSASGSFLLSGWDPEGRGAGETLAGDPAEVLGERGTAPWVEEEEEEEEGSSPGEDSSSLGGGPSRRGPLPCPLCSREGACSCLPLERGDAVAGWGGHPALGCPHPPEDDSSLRAERGSLADLPMAPPASAPPEFLDPLMGAAAPQYPGRGPPPAPPPPPPPPRAPADPAASPDPPSAVASPGSGLSSPGPKPGDSGYETETPFSPEGAFPGGGAAEEEGVPRPRAPPEPPDPGAPRPPPDPGPLPLPGPREKPTFVVQVSTEQLLMSLREDVTRNLLGEKGATARETGPRKAGRGPGNREKVPGLNRDPTVLGNGKQAPSLSLPVNGVTVLENGDQRAPGIEEKAAENGALGSPEREEKVLENGELTPPRREEKALENGELRSPEAGEKVLVNGGLTPPKSEDKVSENGGLRFPRNTERPPETGPWRAPGPWEKTPESWGPAPTIGEPAPETSLERAPAPSAVVSSRNGGETAPGPLGPAPKNGTLEPGTERRAPETGGAPRAPGAGRLDLGSGGRAPVGTGTAPGGGPGSGVDAKAGWVDNTRPQPPPPPLPPPPEAQPRRLEPAPPRARPEVAPEGEPGAPDSRAGGDTALSGDGDPPKPERKGPEMPRLFLDLGPPQGNSEQIKARLSRLSLALPPLTLTPFPGPGPRRPPWEGADAGAAGGEAGGAGAPGPAEEDGEDEDEDEEEDEEAAAPGAAAGPRGPGRARAAPVPVVVSSADADAARPLRGLLKSPRGADEPEDSELERKRKMVSFHGDVTVYLFDQETPTNELSVQAPPEGDTDPSTPPAPPTPPHPATPGDGFPSNDSGFGGSFEWAEDFPLLPPPGPPLCFSRFSVSPALETPGPPARAPDARPAGPVEN
- binding [1]: binds
- binding [2]: binds

— patent US20160356775A1
